Results as given in the supplement of paper PMC9549374.
This is one part of the list. No stated cut-off is given here; in the data, active = 2-fold of DMSO or more and inactive = the rest. Single values of this set are uncertain. Some low values are a fixed figure set by the source, not a measured ratio.

System: CM7/1-hgem mouse ES cell-derived cardiomyocytes
Assay: maximal number of mAG-hGem(1/110)-positive cardiomyocytes over 96 h, fold-change vs DMSO; higher = more cardiomyocyte cell cycle activity
Conditions: 1 µM; 96 (max over 12 h time points) h

Structure (SMILES) | maximal number
CC(C)C1=CC2=CC[C@@H]3[C@](C)(CCC[C@@]3(C)C(=O)O)[C@H]2CC1 | inactive: 1
C[C@H](CCC(=O)O)[C@H]1CC[C@H]2[C@@H]3[C@H](O)C[C@@H]4C[C@H](O)CC[C@]4(C)[C@H]3CC[C@]12C | inactive: 0
NC1(C(=O)O)CC1 | inactive: 1
COc1ccc(-c2ccc3cc(C(=O)O)ccc3c2)cc1C12CC3CC(CC(C3)C1)C2 | inactive: 0
C[C@H](Cn1cnc2c(N)ncnc21)OCP(=O)(O)O | inactive: 1
COc1ccc([C@H]2COc3c(ccc(O)c3OC)C2)c(OC)c1O | inactive: 1
CCN1CCCC1CNC(=O)c1cc(S(=O)(=O)CC)c(N)cc1OC (stereo not given) | inactive: 1
Cc1ccc(NC(=O)c2ccc(CN3CCN(C)CC3)cc2)cc1Nc1nccc(-c2cccnc2)n1 | inactive: 1
COC(=O)C[C@H]1C(C)(C)[C@@H](O)[C@@H]2CC3=C4C=C(OC)O[C@@H](c5ccoc5)[C@]4(C)CCC3[C@@]1(C)C2=O (stereo partly drawn) [3-DEOXO-3beta-HYDROXYMEXICANOLIDE 16-ENOL ETHER] | inactive: 1
C=CC(C1=CC(=O)C=CC1=O)c1ccccc1 (stereo not given) | inactive: 0.5
CC(=O)O[C@H]1CC[C@@]2(C)[C@H](CC[C@@H]3[C@@H]2CC[C@]2(C)[C@@H]4[C@H](C[C@@H]32)O[C@]2(CC[C@@H](C)CO2)[C@H]4C)C1 | inactive: 1
CC1(C)CC[C@]2(C(=O)O)CC[C@]3(C)C(=CCC4[C@@]5(C)CC[C@@H](O)C(C)(C)C5CC[C@]43C)C2C1 (stereo not given in full) | inactive: 1
O=c1cc(-c2ccccc2)oc2cc(O)ccc12 | inactive: 1
COC(=O)C[C@H]1C(C)(C)[C@@H](OC(C)=O)[C@@H]2CC3C4CC(=O)O[C@@H](c5ccoc5)[C@]4(C)CCC3[C@@]1(C)C2=O (stereo not given in full) | inactive: 1
C=C(C)[C@H]1COc2cc3oc(=O)ccc3cc2O1 | inactive: 1
CC(=O)OC1CC2CCC1(C)C2(C)C (stereo not given) | inactive: 1
COc1ccc2c(c1)OCC(Cc1ccc(OC)c(O)c1)C2=O (stereo not given) | inactive: 0
Cc1c(NC(C)C)c(=O)n(-c2ccccc2)n1C | inactive: 1

3 compounds out of the list, sorted by SMILES length, low to high:
Structure (SMILES) | maximal number
NC1(C(=O)O)CC1 | inactive: 1
C=CC(C1=CC(=O)C=CC1=O)c1ccccc1 (stereo not given) | inactive: 0.5
CCN1CCCC1CNC(=O)c1cc(S(=O)(=O)CC)c(N)cc1OC (stereo not given) | inactive: 1

More compounds

Structure (SMILES) | maximal number
CO[C@H]1C[C@H](O[C@@H]2/C(C)=C/C[C@@H]3C[C@@H](C[C@]4(CC[C@H](C)[C@@H](C5CCCCC5)O4)O3)OC(=O)[C@@H]3C=C(C)/C(=N/O)[C@H]4OC/C(=C\C=C\[C@@H]2C)[C@]43O)O[C@@H](C)[C@@H]1O | inactive: 1
CC(=O)Oc1cc2c(s1)CCN(C(C(=O)C1CC1)c1ccccc1F)C2 (stereo not given) | inactive: 1
Cn1c(=O)c2nc(C3CCCC3)[nH]c2n(C)c1=O | inactive: 1
C#C[C@]1(O)CC[C@H]2[C@@H]3CCc4cc(OC5CCCC5)ccc4[C@H]3CC[C@@]21C | inactive: 1
O=C(/C=C/c1ccccc1)c1ccc(O)cc1 | inactive: 1
COC(=O)c1c(C)c2c(c(C)c1O)OC(=O)c1c(C)c(Cl)c(O)c(Cl)c1O2 | inactive: 1
O=c1c(-c2cc(O)c(O)c(O)c2)coc2cc(O)c(O)c(O)c12 | inactive: 1
CCCCCCCCCCOc1cc2c(O)c(C(=O)OCC)cnc2cc1OCC | inactive: 1
CN1CCN2c3ccccc3Cc3ccccc3C2C1 (stereo not given) | inactive: 1
COc1cc(-c2coc3cc(O)c(OC)c(O)c3c2=O)cc(O)c1OC | inactive: 1
CCCC1O[C@@H]2C[C@H]3[C@@H]4CCC5=CC(=O)C=C[C@]5(C)[C@H]4[C@@H](O)C[C@]3(C)[C@]2(C(=O)CO)O1 (stereo not given in full) | inactive: 1
[O-][n+]1cccc(CO)c1 | inactive: 1
Oc1cc(O)c2c(c1)O[C@H](c1ccc(O)c(O)c1)[C@H](O)C2 | inactive: 1
CCN(CC)C(=O)c1cccc(C)c1 | inactive: 1
O=C(O)[C@H](O)[C@@](O)(Cc1ccc(O)cc1)C(=O)O | inactive: 1
CC12CCCC(O)(C1)C1CC(C)(C)C1CC2 (stereo not drawn) [beta-CARYOPHYLLENE ALCOHOL] | inactive: 1
Oc1cc2c(cc1O)C1c3ccc(O)c(O)c3OCC1(O)C2 (stereo not given) | inactive: 1
